Our source for the binding values is patent publication US20260167703A1.

To fix the notation:
B1: DENV4-9G8 (antibody, V domains shown)
VH: QSLEESGGGLVKPGASLTLTCTASGFSFSYRYWMSWVRQAPGKRPEWIACIDTGNGDTYYASRAKGRFTIMKTSSTTVTLQMTSLTVADTATYFCARSDVTLTGYGYGNLWGPGTLVTVSS
VL: DSVMTQTPASVSEPVGGTVTINCQASHNIYNSLAWYQQKPGQPPKLLIYRASTLESGVPSRVKGSGYGTEYTLTISDLECADAATYYCQQYYGGDDDGFGFGGGTEVVVK
B2: DENV4-7F2 (antibody, V domains shown)
VH: QSVEESGGRLVTPGTPLTLTCTVSGIDLSYYAMGWVRQAPGEGLECIGFIDTGDSAYYASWAKGRFTISKTSSTTVDLKITSPTPEDTATYFCGRSLSSYYDWDAFDPWGPGTLVTVSS
VL: AYDMTQTPASVEVAVGGTVTINCQASQTIGNLLAWYQQKPGQRPKLLIYRASTLASGVPSRFKGSGSGTQFTLTISGVECADAATYYCQQGASANDIDNSFGGGTAVVVK
B3: DENV4-10A11 (antibody, V domains shown)
VH: QSVEESGGRLVTPGTPLTLTCTVSGINLSFYAMGWVRQAPGKGLECVGFIDTDNSAYYASWAKGRFTISKTSTTVDLKITSPTTEDTATYFCARSLSSFYDWDAFDPWGPGTLVTVSS
VL: B2 VL with N22K, Q24L, T28S, G30S, A94N, N95S, S100A, A106E
B4: DENV2-3H11 (antibody, V domains shown)
VH: QSVEESGGRLVTPGTPLTLTCTVSGFSLINYDMSWIRQAPGKGLEWIGMVSGGGHTNYASWANGRFTISKTSSTTMDLKITSPTTEDTASYFCGRWDIWGPGTLVTVSL
VL: AVVVTQTASPVSAAVGGTVTISCQSSQSVYDDNWLAWYQQKPGQPPKQLIYRASRLASGVPSRFSGTGSGTQFTLTISGVQCDDAATYYCLGGYVDDGDTTFGGGTEVVVK
B5: DENV4-7D5 (antibody, V domains shown)
VH: QSVEESGGRLVTPGTPLTLTCTVSGIDLSSWEMGWVRQAPGKGLEWIGIIFPSGTIYYANWAKGRFAISKASTTVDLKITSPTTEDTATYFCGRHGGSLYLNIWGPGTLVTVSL
VL: AQVLTQTPSPVSAAVGGTVTINCQASQSVYVNRNLAWYQQKPGQPPKVLIYEASKLASGVPSRFKGSGSGTQFTLTISGVQCDDAATYYCQGEFGCSSADCIAFGGGTEVVVK
B6: DENV4-8C7 (antibody, V domains shown)
VH: B5 VH with W31Y, A67T, A71T
VL: B5 VL
B7: DENV2-5F4 (antibody, V domains shown)
VH: QSVEESGGRLVKPDETLTLTCTVSGIDLSNTVISWVRQAPGKGLEYIGMITPSGSAYSATWAKGRVTISRTSTTVDLKIASPTTEDTATYFCARIAWSTGRNDIWGPGTLVTVSS
VL: AAVLTQTPPSVSAAVGGTVTIKCQSSQSVYNNNALSWYQQKPGQPPKLLIYQASKLSSGVSSRFSGSGSGTHFTLTISGVQCDDAATYYCLGIYDDDVDNTFGGGTEVVVG
B8: DENV2-8D8 (antibody, V domains shown)
VH: QSLEESGGRLVKPDETLTLTCTVSGIDLSSTIITWVRQAPGKGLEYIGIIGSSGSIISANWAKGRFTISRTSTTVDLKMTSLTTEDTATYFCARIAWSTGRNDIWGPGTLVTVSS
VL: B7 VL with K22S, Q52L, K55N, S57A, S61P, H72Q, Y89H, I93V, Y94D, G111K
B9: DENV4-5B11 (antibody, V domains shown)
VH: QSVEESGGRLVTPGTPLTLTCTVSGFSLSDSAMSWVRQAPGKGLEWIGYIYAGSGTTYYASWAKGRFTISKTSTTVDLKITSPTTEDTATYFCARATAYVGYGYGDDTFDPWGPGTLVTVSS
VL: AYDMTQTPASVEVAVGGTVTIKCQASQSISSYLSWYQQKPGQRPKLLIYRASTLASGVSSRFKGSGSGTEFTLTISGVQCDDAATYYCQQGYSNSDVDNVFGGGTEVVVK
B10: DENV4-7G4 (antibody, V domains shown)
VH: B9 VH with D30S, S31C, S34T, A52V, G53D, G55D, K71T, K79R, A96T, Y102G
VL: DVVMTQTPASVEAAVGGTVTINCQASQNINSYLSWYQQKPGQRPKLLIYRAFTLASGVSSRFKGSGSGTQFTLTISGVECADAATYYCQQGYSFSGVDNVFGGGTEVVVK

Substitutions are numbered along the chain they refer to. Results are given in words; binding and its absence hold for the method and conditions named. For part of these data: Binding can be weak; no strength is given.

For one experiment, the target named is DENV-1 VLP (Dengue virus serotype 1, strain Puerto Rico/US/BID-V853/1998). The experiment can be described thus: Luminex bead assay (antigen on MagPlex beads, MFI).
Take B1: the binding entry was “no binding (tested: 10000 ng/mL)”.

Regarding B2, the binding entry is on record as “no binding (tested: 10000 ng/mL)”.

With B3, the binding entry is reported as “no binding (tested: 10000 ng/mL)”.

On to B4, for which the binding entry is on record as “no binding (tested: 10000 ng/mL)”.

Consider B5, for which the binding entry is “no binding (tested: 10000 ng/mL)”.

B6: the binding result is given as “no binding (tested: 10000 ng/mL)”.

For B7, the binding entry was “no binding (tested: 10000 ng/mL)”.

For B8, the binding result is listed as “no binding (tested: 10000 ng/mL)”.

In the case of B9, the binding entry is listed as “no binding (tested: 10000 ng/mL)”.

B10: the binding result was “no binding (tested: 10000 ng/mL)”.

For the next experiment, the target named is DENV-3 VLP (Dengue virus serotype 3, strain Sri Lanka D3/H/IMTSSA-SRI/2000/1266). Briefly: Luminex bead assay (antigen on MagPlex beads, MFI).
For the molecule B1, the binding result was “no binding (tested: 10000 ng/mL)”.

B2: the binding entry was “no binding (tested: 10000 ng/mL)”.

Regarding B3, the binding entry is “no binding (tested: 10000 ng/mL)”.

As for B4, the binding result is “binds”.

For the molecule B5, the binding result is on record as “no binding (tested: 10000 ng/mL)”.

For the molecule B6, the binding result is listed as “no binding (tested: 10000 ng/mL)”.

Consider B7, for which the binding entry was “no binding (tested: 10000 ng/mL)”.

Take B8: the binding result is on record as “no binding (tested: 10000 ng/mL)”.

B9: the binding result is given as “no binding (tested: 10000 ng/mL)”.

For B10, the binding entry was “no binding (tested: 10000 ng/mL)”.

Another experiment concerns the target Dengue Virus Serotype 4 envelope protein (Dengue virus serotype 4, strain Philippines/H241). The experiment can be described thus: Luminex bead assay (antigen on MagPlex beads, MFI).
As for B10, the binding result is listed as “no binding (tested: 10000 ng/mL)”.
